Source: patent US20230321192A1 (published 2023)
Where a chain is given by its changes, count along the chain named. These are yes or no findings as the source states them, for the method shown. Some binding calls cover weakened binding; strength is not graded here.

T1: Mouse IL-18Rα ectodomain (amino acids 19-329) (mouse) (UniProt Q61098)
T1 sequence (chain, biotin on the AviTag (BirA ligase)): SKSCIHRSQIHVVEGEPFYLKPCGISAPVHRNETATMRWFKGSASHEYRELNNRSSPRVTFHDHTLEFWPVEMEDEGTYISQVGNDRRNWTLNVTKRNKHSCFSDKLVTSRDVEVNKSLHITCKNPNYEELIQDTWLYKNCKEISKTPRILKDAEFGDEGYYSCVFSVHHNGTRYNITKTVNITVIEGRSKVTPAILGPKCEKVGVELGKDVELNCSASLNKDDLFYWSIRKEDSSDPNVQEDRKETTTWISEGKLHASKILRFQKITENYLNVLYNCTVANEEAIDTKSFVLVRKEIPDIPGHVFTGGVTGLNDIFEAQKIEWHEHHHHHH

B1: mA7 (ligand)
chain: YFGRLHCTTAVIRNINDQVLFVDKRQPVFEDMTDIDQSASEPQTRLIIYAYGDNRVRGKAVTLSVKDSKMSTLSCKNKIISFEEMDPPENIDDIQSDLIFFQKRVPGHNKMEFESSLYEGHFLACQKEDDAFKLILKKKDENGDKSVMFTLTNLHQS
notes: Murine DR-IL-18 variant; recombinant with C-terminal hexahistidine tag in SPR; fusion and tag not written
B2: mCS1 (ligand)
chain: B1 chain with Y1N, A50G, G52A, N54S
B3: mB1 (ligand)
chain: B1 chain with Y1H, A50G, G52A, N54S, R55D, V56A, G58A, R104S, L151V
B4: mC1 (ligand)
chain: B1 chain with Y1N, G52V, N54R, V56L, R104K
notes: as for B1
B5: mE8 (ligand)
chain: B1 chain with Y1N, A50V, G52T, N54G, V56R, R104K, N109D
notes: as for B1
B6: mCS2 (ligand)
chain: B1 chain with Y1H, N54S, V56A
notes: Murine DR-IL-18 consensus variant; recombinant with C-terminal hexahistidine tag in SPR; fusion and tag not written

biological target: T1, Mouse IL-18Rα ectodomain (amino acids 19-329) (mouse); test: yeast binding isotherms and SPR

Binder | binding
B1 | binds
B2 | binds
B3 | binds
B4 | binds
B5 | binds
B6 | binds

biological target: T1, Mouse IL-18Rα ectodomain (amino acids 19-329) (mouse); test: on-yeast binding isotherm, flow cytometry (FIG. 11A)

Binder | binding
B1 | binds
B2 | binds
B3 | binds
B4 | binds
B5 | binds
B6 | binds
